Measurements taken from PubChem BioAssay (EPA / NIEHS).
Where “and” joins values, the source holds several entries; their conditions need not be identical. Identical values can stand only once. The inconclusive results got no clear call from the source; some entries with a clear call stand among them for comparison. For some of these results: Potencies of inconclusive entries are doubtful fits and often do not repeat. More than one record can exist for a structure, and the calls need not agree. Calls of active or inactive are those of the source. Rule for the calls: active = hit-call score of the fitted dose curve at least 0.9, where 1 is the maximum; inconclusive = response in the unintended direction; inactive = score below 0.9.

Amino acid sequences for entries named in this document (tags omitted). A change or cut given only in a name is not applied to a line headed by its entry.
UniProt P10827: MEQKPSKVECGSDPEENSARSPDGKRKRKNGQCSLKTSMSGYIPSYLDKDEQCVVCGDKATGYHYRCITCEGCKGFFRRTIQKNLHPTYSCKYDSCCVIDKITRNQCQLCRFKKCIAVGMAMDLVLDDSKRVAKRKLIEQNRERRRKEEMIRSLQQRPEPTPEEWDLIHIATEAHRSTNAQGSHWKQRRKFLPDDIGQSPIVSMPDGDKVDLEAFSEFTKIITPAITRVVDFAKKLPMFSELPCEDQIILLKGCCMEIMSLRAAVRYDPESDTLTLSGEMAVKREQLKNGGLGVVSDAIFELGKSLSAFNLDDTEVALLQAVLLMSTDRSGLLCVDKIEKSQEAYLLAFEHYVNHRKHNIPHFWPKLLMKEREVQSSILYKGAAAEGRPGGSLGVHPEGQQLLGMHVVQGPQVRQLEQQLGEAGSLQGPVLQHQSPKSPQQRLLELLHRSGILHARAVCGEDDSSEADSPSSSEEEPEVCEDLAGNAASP
UniProt P04637, whole entry, looked up: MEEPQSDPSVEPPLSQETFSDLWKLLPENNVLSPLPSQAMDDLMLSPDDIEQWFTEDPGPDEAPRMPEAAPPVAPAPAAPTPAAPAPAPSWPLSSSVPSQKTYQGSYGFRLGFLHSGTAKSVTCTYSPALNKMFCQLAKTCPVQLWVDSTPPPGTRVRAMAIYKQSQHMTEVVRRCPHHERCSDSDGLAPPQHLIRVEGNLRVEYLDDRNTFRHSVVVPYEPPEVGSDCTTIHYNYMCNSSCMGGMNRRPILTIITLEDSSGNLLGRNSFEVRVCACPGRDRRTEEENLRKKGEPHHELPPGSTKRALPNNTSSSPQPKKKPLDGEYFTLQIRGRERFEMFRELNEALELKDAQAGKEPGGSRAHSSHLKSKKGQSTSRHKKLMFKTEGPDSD
UniProt Q03181: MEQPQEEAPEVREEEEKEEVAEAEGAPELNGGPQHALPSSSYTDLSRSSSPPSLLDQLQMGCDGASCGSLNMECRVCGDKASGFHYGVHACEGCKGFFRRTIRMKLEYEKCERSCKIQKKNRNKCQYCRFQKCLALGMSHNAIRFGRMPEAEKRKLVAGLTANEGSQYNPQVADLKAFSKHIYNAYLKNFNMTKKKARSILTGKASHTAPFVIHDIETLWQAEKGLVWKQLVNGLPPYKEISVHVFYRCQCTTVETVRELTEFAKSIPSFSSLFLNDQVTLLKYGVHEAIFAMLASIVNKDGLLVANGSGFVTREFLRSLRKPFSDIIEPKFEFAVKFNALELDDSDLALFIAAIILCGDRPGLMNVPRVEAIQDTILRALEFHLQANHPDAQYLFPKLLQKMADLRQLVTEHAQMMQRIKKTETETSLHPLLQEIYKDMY
UniProt P11473: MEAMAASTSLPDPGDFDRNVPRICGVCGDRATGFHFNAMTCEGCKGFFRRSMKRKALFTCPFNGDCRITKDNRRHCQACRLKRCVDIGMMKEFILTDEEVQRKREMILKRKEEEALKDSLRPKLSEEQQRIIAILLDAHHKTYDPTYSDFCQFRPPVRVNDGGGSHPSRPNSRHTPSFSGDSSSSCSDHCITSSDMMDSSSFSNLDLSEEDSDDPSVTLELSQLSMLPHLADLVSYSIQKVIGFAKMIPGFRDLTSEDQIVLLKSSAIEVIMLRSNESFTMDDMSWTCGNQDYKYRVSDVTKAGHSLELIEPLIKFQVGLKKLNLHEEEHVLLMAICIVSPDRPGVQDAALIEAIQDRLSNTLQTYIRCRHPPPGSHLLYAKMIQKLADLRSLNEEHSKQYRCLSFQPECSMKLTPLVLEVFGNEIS
UniProt P19793: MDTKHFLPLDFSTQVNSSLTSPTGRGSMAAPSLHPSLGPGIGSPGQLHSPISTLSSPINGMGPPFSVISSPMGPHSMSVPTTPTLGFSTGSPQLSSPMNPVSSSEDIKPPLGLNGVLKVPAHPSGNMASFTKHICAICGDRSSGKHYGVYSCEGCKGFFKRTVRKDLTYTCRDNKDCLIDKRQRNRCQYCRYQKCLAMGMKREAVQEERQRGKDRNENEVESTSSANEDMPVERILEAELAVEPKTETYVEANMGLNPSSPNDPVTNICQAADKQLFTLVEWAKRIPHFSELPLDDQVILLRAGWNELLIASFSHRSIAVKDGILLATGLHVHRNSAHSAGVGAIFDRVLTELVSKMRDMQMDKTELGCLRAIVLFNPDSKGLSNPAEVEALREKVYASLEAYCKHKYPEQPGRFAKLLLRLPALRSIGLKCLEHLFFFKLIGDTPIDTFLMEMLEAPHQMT
UniProt P04406: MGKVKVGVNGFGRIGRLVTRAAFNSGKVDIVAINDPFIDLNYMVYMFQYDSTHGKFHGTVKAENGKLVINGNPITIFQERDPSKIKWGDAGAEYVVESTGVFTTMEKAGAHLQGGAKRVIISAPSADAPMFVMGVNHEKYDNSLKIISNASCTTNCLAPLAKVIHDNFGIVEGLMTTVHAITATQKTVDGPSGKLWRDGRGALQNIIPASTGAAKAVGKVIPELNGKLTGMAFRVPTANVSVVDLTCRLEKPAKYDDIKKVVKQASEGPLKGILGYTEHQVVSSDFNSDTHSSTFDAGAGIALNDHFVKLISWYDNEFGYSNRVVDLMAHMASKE
UniProt P37231: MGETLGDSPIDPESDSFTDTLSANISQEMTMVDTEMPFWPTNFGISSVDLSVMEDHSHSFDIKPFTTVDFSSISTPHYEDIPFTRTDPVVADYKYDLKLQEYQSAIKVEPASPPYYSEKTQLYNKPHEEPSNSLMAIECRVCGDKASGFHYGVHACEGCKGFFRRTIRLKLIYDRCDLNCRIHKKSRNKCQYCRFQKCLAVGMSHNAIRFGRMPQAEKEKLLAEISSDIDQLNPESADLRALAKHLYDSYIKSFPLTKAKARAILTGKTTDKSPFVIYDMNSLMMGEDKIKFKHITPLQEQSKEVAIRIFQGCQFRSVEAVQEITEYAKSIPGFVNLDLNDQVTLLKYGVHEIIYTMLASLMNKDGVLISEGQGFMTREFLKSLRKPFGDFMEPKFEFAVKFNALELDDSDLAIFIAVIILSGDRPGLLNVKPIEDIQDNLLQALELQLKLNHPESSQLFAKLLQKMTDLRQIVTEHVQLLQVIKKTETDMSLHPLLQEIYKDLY

Key:
[1] = ATG_M_06_TRANS: Attagene TRANS-FACTORIAL HepG2 Assay for M06 Transcription Factor (Internal Marker) (AID 2282983); conditions: HepG2 Attagene TRANS M06 internal marker reporter;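 for AC50: potency for rise in reporter mRNA above DMSO baseline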
Summary of the method: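 Internal-marker background readout from a multiplexed TRANS reporter system in HepG2; 24 h dosing; mRNA induction quantified by RT-PCR plus capillary electrophoresis fluorescence; DMSO as negative control and baseline.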

[2] = biological target: human Thyroid Receptor alpha (THRa1), THRA (gene 7067) (UniProt P10827); assay: ATG_THRa1_TRANS: Attagene TRANS-FACTORIAL HepG2 Assay for human Thyroid Receptor alpha (THRa1) (AID 2283014)
Summary of the method: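 Measured here is mRNA from a GAL4-UAS reporter in transfected HepG2 cells carrying a Gal4-fused receptor, 24 h post-dose. DMSO served as negative control and baseline.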

[3] = biological target: Cellular tumor antigen p53 (Homo sapiens) (UniProt P04637); assay: TOX21_p53_BLA_p2_ratio: Tox21 HCT-116 p53 Agonism Beta-lactamase Assay, Ratio, Phase 2 (AID 2283592)
Summary of the method: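 Human colon HCT116 cells with an inducible p53 beta-lactamase reporter are exposed to test chemicals for 16 h at 37C. Reporter induction is read as the 460/530 nm emission ratio after CCF4-AM loading, normalized to DMSO.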

[4] = biological target: Cellular tumor antigen p53 (Homo sapiens) (UniProt P04637); assay: TOX21_p53_BLA_p3_ratio: Tox21 HCT-116 p53 Agonism Beta-lactamase Assay, Ratio, Phase 3 (AID 2283596)
Summary of the method: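 HCT116 p53-bla cells (4000/well) given compound in DMSO (217-fold dilution) after 5 h, incubated 16 h at 37C. CCF4-AM substrate 2 h at room temperature; 460/530 nm emission ratio, gain fitted against DMSO.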

[5] = biological target: Cellular tumor antigen p53 (Homo sapiens) (UniProt P04637); assay: TOX21_p53_BLA_p5_ratio: Tox21 HCT-116 p53 Agonism Beta-lactamase Assay, Ratio, Phase 5 (AID 2283599)
Summary of the method: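 HCT-116 p53-bla cells (4000/well) plated 5 h, dosed with compound (217-fold DMSO dilution) for 16 h at 37 C; CCF4-AM substrate 2 h at room temperature. Activity is the 460/530 nm emission ratio (405 nm excitation), fitted in gain-of-signal direction versus DMSO.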

[6] = TOX21_p53_BLA_p5_viability: Viability Assessment in the Tox21 HCT-116 p53 Agonism Beta-lactamase Assay, Phase 5 (AID 2283600)
Summary of the method: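 Seeded cells (4000/well) settle 5 h before compound addition. Plates then incubate 16 h at 37C, receive FRET substrate for 2 h, and finally CellTiter-Glo, with luminescence measured after a 30 min room-temperature incubation.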

[7] = ACEA_ER_AUC_viability: ACEA Biosciences xCELLigence Real-Time Cell Analysis on Estrogen Receptor Agonism for Viability (AID 2283782);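 note: continuous compound exposure with impedance area under curve over 80 h; hit means loss of impedance signal meaning reduced cell growth or viability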
Summary of the method: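 T47D cells preconditioned in phenol red-free RPMI with charcoal-stripped FBS, then dosed with 8-point 1:4 series from 100 uM (up to 0.5% DMSO). Impedance monitored up to ~80 h; area-under-curve loss versus DMSO taken as viability.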

[8] = ATG_M_32_TRANS: Attagene TRANS-FACTORIAL HepG2 Assay for M32 Transcription Factor (Internal Marker) (AID 2282984); conditions: HepG2 Attagene TRANS M32 internal marker reporter
Summary of the method: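 HepG2 cells transiently transfected with GAL4-UAS reporter units, dosed for 24 hours. Reporter mRNA quantified by RT-PCR, 6-FAM labelling, HpaI digestion and capillary electrophoresis; internal-marker signal fitted upward relative to DMSO.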

[9] = biological target: human Peroxisome Proliferator-activated Receptor delta (PPARd), PPARD (gene 5467) (UniProt Q03181); assay: ATG_PPARd_TRANS: Attagene TRANS-FACTORIAL HepG2 Assay for human Peroxisome Proliferator-activated Receptor delta (PPARd) (AID 2283002)
Summary of the method: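 Read-out: reporter mRNA induction, quantified by fluorescent RT-PCR products resolved by capillary electrophoresis. Human HepG2 liver cells carried transiently transfected Gal4-UAS reporter constructs with chimeric NR-Gal4 fusions. Cells were dosed for 24 h; DMSO served as baseline.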

[10] = biological target: Cellular tumor antigen p53 (Homo sapiens) (UniProt P04637); assay: TOX21_p53_BLA_p4_ratio: Tox21 HCT-116 p53 Agonism Beta-lactamase Assay, Ratio, Phase 4 (AID 2283601)
Summary of the method: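 HCT-116 p53 beta-lactamase reporter cells (4000/well) preincubated 5 h, then compound (217-fold dilution of DMSO stock) for 16 h at 37C. CCF4-AM substrate added 2 h at room temperature; 460/530 nm emission ratio fitted upward versus DMSO.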

[11] = CCTE_Harrill_HTTr_CellCount_MCF7: CCTE's Cell Proliferation Assessment for the High-Throughput Transcriptomics (HTTr) Platform, Harrill Lab (AID 2284012);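 note: cells exposed to compound for six hours; intended direction is loss of nuclei count meaning fewer cells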
Summary of the method: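 MCF7 cells exposed 6 hours to an eight-point dilution series; Hoechst-stained nuclei counted by high-content imaging. Bidirectional curve fitting against DMSO baseline.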

[12] = biological target: human Vitamin D Receptor (VDR), VDR (gene 7421) (UniProt P11473); assay: ATG_VDR_TRANS: Attagene TRANS-FACTORIAL HepG2 Assay for human Vitamin D Receptor (VDR) (AID 2283022)
Summary of the method: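 Multiplexed TRANS reporter in HepG2; 24 h treatment; reporter mRNA by RT-PCR plus capillary electrophoresis; upregulation scored relative to DMSO.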

[13] = biological target: Retinoic acid receptor RXR-alpha (Homo sapiens) (UniProt P19793); assay: ATG_RXRa_TRANS: Attagene TRANS-FACTORIAL HepG2 Assay for human Retinoid X Receptor alpha (RXRa) (AID 2283012)
Summary of the method: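 HepG2 cells transiently transfected with GAL4-UAS reporter units and chimeric RXRa-Gal4 protein, treated 24 h. Reporter mRNA measured by RT-PCR, fluorescent labelling, HpaI digestion and capillary electrophoresis. Induction fitted against DMSO.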

[14] = CLD_ACTIN_24hr: CellzDirect (CLD) Gene Expression Assay for Baseline Control (Actin) at 24 hours (AID 2283670)
Summary of the method: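 Primary human hepatocytes dosed over multiple concentrations with 0.2% DMSO vehicle; actin mRNA measured at 24 h by qNPA chemiluminescence. Background control endpoint, fitted as gain of signal versus DMSO.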

[15] = read-out: HMG-CoA synthase (HMGCS2), HMGCS2 (gene 3158); assay: CLD_HMGCS2_24hr: CellzDirect (CLD) Gene Expression Assay for HMG-CoA synthase (HMGCS2) at 24 hours (AID 2283691)
Summary of the method: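 Primary human hepatocytes from two donor preparations, dosed daily with fresh solutions; vehicle 0.2% DMSO, 24 h harvest. HMGCS2 mRNA quantified by qNPA with S1 nuclease digestion and chemiluminescence; gain fitted versus DMSO, cytotoxicity annotated by morphology.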

[16] = read-out: Glyceraldehyde-3-phosphate dehydrogenase (Homo sapiens) (UniProt P04406); assay: CLD_GAPDH_48hr: CellzDirect (CLD) Gene Expression Assay for Baseline Control (Glyceraldehyde 3-phosphate dehydrogenase) at 48 hours (AID 2283706)
Summary of the method: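 Primary human hepatocytes dosed daily for two days with fresh chemical at multiple concentrations, 0.2% DMSO vehicle; GAPDH mRNA measured at 48 h by quantitative nuclease protection assay with chemiluminescence, fitted upward relative to DMSO as background control.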

[17] = read-out: organic anion transporter (SLCO1B1), SLCO1B1 (gene 10599); assay: CLD_SLCO1B1_48hr: CellzDirect (CLD) Gene Expression Assay for organic anion transporter (SLCO1B1) at 48 hours (AID 2283707)
Summary of the method: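 Primary human hepatocytes from two donor preparations dosed daily for two days with multiple concentrations, 0.2% DMSO vehicle. SLCO1B1 mRNA at 48 h by quantitative nuclease protection assay, chemiluminescence; gain-of-signal fitted versus DMSO.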

[18] = read-out: HMG-CoA synthase (HMGCS2), HMGCS2 (gene 3158); assay: CLD_HMGCS2_48hr: CellzDirect (CLD) Gene Expression Assay for HMG-CoA synthase (HMGCS2) at 48 hours (AID 2283711)
Summary of the method: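 Primary human hepatocytes from two donors dosed daily for two days, 0.2% DMSO vehicle. HMGCS2 mRNA measured 48 h after dosing by quantitative nuclease protection assay with chemiluminescent read-out; induction fitted relative to DMSO, cytotoxicity flagged by microscopy.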

[19] = biological target: Peroxisome proliferator-activated receptor gamma (Homo sapiens) (UniProt P37231); assay: ATG_PPARg_TRANS: Attagene TRANS-FACTORIAL HepG2 Assay for human Peroxisome Proliferator-activated Receptor-gamma (PPARg) (AID 2283007)
Summary of the method: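 HepG2 cells are transiently transfected with GAL4-UAS reporter units driven by chimeric NR-Gal4 fusions and dosed for 24 h. Reporter mRNA is quantified by RT-PCR, 6-FAM labelling, HpaI digestion and capillary electrophoresis. Induction is scored against DMSO.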

Measured: AC50

Nc1ccc(Oc2ccc(N)cc2)cc1
inactive: [8] | [11]
inconclusive: [9] 100 µM | [3] 46.6 µM | [4] 46.6 µM | [5] 46.6 µM | [6] 46.6 µM | [10] 46.6 µM | [7] 85.3 µM

Cc1cccc(N)c1N
inconclusive: [12] 106 µM | [3] 44.8 µM | [10] 69.8 µM | [11] 50 µM
inactive: [1] | [8] | [6] | [10]

CCOP(=S)(OCC)OC(Cl)C(Cl)(Cl)Cl (centres undefined)
inconclusive: [12] 0.0131 µM | [5] 46.1 µM | [14] 0.092 µM | [16] 20 µM | [17] 20 µM | [18] 5.05 µM
inactive: [13] | [2] | [3] | [4] | [10] | [15]

CC1(C)COP(Oc2ccccc2)OC1
inconclusive: [2] 100 µM

CCOP(=S)(OCC)OP(=S)(OCC)OCC
inactive: [3] | [4]
inconclusive: [6] 46.1 µM and 47.1 µM | [10] 47.1 µM

[N-]=[N+]=CC(=O)OC[C@H](N)C(=O)O
inconclusive: [13] 23.6 µM | [2] 100 µM | [6] 23 µM
inactive: [9] | [12] | [11]

O=C1C(Cl)=C(Cl)C(=O)c2ccccc21
active: [4] 54.1 µM and 67.3 µM | [5] 63.4 µM and 19.6 µM | [6] 57.7 µM | [10] 17.1 µM | [7] 16.7 µM
inconclusive: [9] 11.1 µM | [2] 11.1 µM

c1ccc(N=Nc2ccccc2)cc1
active: [19] 43 µM
inactive: [1] | [4] | [11]
inconclusive: [8] 100 µM | [2] 26.9 µM | [4] 72.4 µM | [5] 84 µM | [6] 46.1 µM and 46.8 µM | [7] 50 µM
